The supplement of paper PMC10338343
± gives the standard deviation. The list shows a part of the results, in another mix than the full data. Many of these values have a large error.

Tested on: EfPiwi piRISC loaded with piRNA #1 (26 nt)
Assay: pre-steady-state target cleavage rate (min^-1); guide: piRNA #1 5'p-UGAGGUAGUAGGUUGUAUAGUAUCCA; MIWI and MILI are mouse PIWI proteins and EfPiwi is from a freshwater sponge; tags in brackets are library labels; higher = faster piRNA-guided slicing of the target
Conditions: auxiliary factor: 500 nM Ephydatia muelleri Gtsf1
How it was run: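 Cleave-'n-Seq: a transcribed, DNA-blocked target RNA library (0.1 nM) was mixed with 1 nM active affinity-purified piRISC carrying one synthetic guide, with or without 500 nM GTSF1 partner protein, in HEPES–potassium acetate buffer at 33 °C for 0–8 or 0–960 min. Uncleaved targets were sequenced and normalised to depth and to weakly complementary targets. Three trials were pooled, and k3 was capped at 0.0001 min^-1. The pre-steady-state cleavage rate came from a burst-and-steady-state fit.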

Row | Sequence | pre-steady-state target cleavage rate
1 | GGAGACCUAUCUAUACACACCUACUACCUCA | 0.00187 ± 0.0051
2 | GGAGACCUAUGUAUACAAGCUACUACGUCA | 0.00162 ± 0.0056
3 | GGAGAGGAAACUAUACAACCUUCUACCUCA | 0.00297 ± 0.0027
4 | GGAGACCUAACUAUACAACCUAUUACCUCA | 0.00738 ± 0.0043
5 | GGAGACCAUACUAUACAACCUACUUGGUCA | 0.00392 ± 0.0029
6 | GGAGACCUAACUAUUCAACCUAGUACCUCA | 0.00265 ± 0.0045
7 | GGAGACCUUACUAAACAAGCUACUACCUCA | 0.000497 ± 0.0086
8 | GGAGACCAUAGUAUACAACCUAGUACCUCA | 0.00229 ± 0.0028
9 | GGAGACGAUAGAAUACAACCUACUACCUCA | 0.00812 ± 0.0043
10 | GGAGACCUAUGUAUACAACCUACAACCUCA | 0.00161 ± 0.0047
11 | GGAGACCAUAGUAUACAACCUACUACCUGA | 0.00396 ± 0.0018
12 | GGAGACCUUACUAUAGAACCUACUUCCUCA | 0.00159 ± 0.0039
13 | GGAGACGAUACAAUUCAACCUACUACCUCA | 0.0021 ± 0.0046
14 | GGAGACCUAUCAAUACAACCUAGUACCUCA | 0.000538 ± 0.005
15 | GGAGAGGAUAGUAUACAACCUACAACCUCA | 0.00249 ± 0.0021
16 | GGAGACCUUACUAUACAACCUACUAGCUGA | 0.00236 ± 0.0044
17 | GGAGACCUUACUAUACUACCUACUACCACA | 0.00207 ± 0.0061
18 | GGAGACCUAUCUAUACAACCUACAACCUGA | 0.00249 ± 0.0057
19 | GGAGAGGAUACUAUACAUCGUACUACCUCA | 0.00364 ± 0.0019
20 | GGAGACGAUAGUAUACAUCCUACUACCUCA | 0.00323 ± 0.0026

3 entries drawn at random from the list so far, as already listed:
Row | Sequence | pre-steady-state target cleavage rate
8 | GGAGACCAUAGUAUACAACCUAGUACCUCA | 0.00229 ± 0.0028
17 | GGAGACCUUACUAUACUACCUACUACCACA | 0.00207 ± 0.0061
16 | GGAGACCUUACUAUACAACCUACUAGCUGA | 0.00236 ± 0.0044

The list continues:

Row | Sequence | pre-steady-state target cleavage rate
21 | GGAGACCUUAGUAUAGAACCUACUACCUCA | 0.000735 ± 0.0061
22 | GGAGACCUAUGUUUACAACGUACUACCUCA | 0.000588 ± 0.0042
23 | GGAGAGGAUAGUAUACAACCUAGUACCUCA | 0.00231 ± 0.002
24 | GGAGUGGAUACUAUACAACCUACUACCCCA | 0.00727 ± 0.0025
25 | GGAGACCUAACUAUACAACCUAUCUACCUCA | 0.00181 ± 0.0046
26 | GGAGACCUAACUAUACAACCUACUACCUCC [g2:g21:cont:t1C] | 0.00701 ± 0.0033
27 | GGAGACCUUACUAUACAUGGUACUACCUCA | 0.000744 ± 0.0079
28 | GGAGACCUUACUAUACACCCUACUACCUCA | 0.00862 ± 0.0036
29 | GGAGACCUUACUAUAGAACGUACUACCUCA | 0.000667 ± 0.0052
30 | GGAGACCUUACUAUAGCAACCUACUACCUCA | 0.00326 ± 0.0039
31 | GGAGACCAUACUAUACAACCAUACUACCUCA | 0.00431 ± 0.003
32 | GGAGACCUAUCAAUACAACCUACUAGCUCA | 0.00221 ± 0.0046
33 | GGAGACCUAACUAUACAACGUACAACCUCA | 0.00218 ± 0.0047
34 | GGAGACCUUACUAUAGAUCCUACUACCUCA | 0.00117 ± 0.004
35 | GGAGACCUAACUAUACAACCUAGCUACCUCA | 0.00041 ± 0.015
36 | GGAGUCGAUACUAUACAAGCUACUACCUCA | 0.00581 ± 0.0024
37 | GGAGACGUUACUAUACAACCUACUACCUGA | 0.00573 ± 0.0022
38 | GGAGACCUUACUAUACAACCUACUACUUCA | 0.0046 ± 0.003
39 | GGAGUGGAUUCUAUACAACCUACAACCUCA | 0.00183 ± 0.0023
40 | GGAGACCUAUGAUAUGUUGCUACUACGACA | 0.00097 ± 0.0049
